Values of other authors, collected in patent US9176114B2, “Cell culture model for acquired chemoresistance of chronic myelogenous leukemia and related methods for identifying agents to overcome resistance” (CITY OF HOPE, priority 2007, dated 2015).
Where a name gives a salt, the structure may show the parent alone.

System: K562 cells
Conditions: read-out: IC50 of apoptosis induction; STI-571 alone; cited from earlier work

Cc1ccc(NC(=O)c2ccc(CN3CCN(C)CC3)cc2)cc1Nc1nccc(-c2cccnc2)n1 [STI-571, Imatinib mesylate]
IC50: ~500 nM
